Source: the supplement of paper PMC12819154, “High-throughput peptide-centric local stability assay extends protein–ligand identification to membrane proteins, tissues and bacteria” (Nature Structural & Molecular Biology, 2025)
The list shows a part of the results. Small differences around the control level are noise.

Sequences of proteins named here, by UniProt entry; tags and fusion partners are left off. A change or cut given only in a name is not applied to a line headed by its entry.
UniProt O14795: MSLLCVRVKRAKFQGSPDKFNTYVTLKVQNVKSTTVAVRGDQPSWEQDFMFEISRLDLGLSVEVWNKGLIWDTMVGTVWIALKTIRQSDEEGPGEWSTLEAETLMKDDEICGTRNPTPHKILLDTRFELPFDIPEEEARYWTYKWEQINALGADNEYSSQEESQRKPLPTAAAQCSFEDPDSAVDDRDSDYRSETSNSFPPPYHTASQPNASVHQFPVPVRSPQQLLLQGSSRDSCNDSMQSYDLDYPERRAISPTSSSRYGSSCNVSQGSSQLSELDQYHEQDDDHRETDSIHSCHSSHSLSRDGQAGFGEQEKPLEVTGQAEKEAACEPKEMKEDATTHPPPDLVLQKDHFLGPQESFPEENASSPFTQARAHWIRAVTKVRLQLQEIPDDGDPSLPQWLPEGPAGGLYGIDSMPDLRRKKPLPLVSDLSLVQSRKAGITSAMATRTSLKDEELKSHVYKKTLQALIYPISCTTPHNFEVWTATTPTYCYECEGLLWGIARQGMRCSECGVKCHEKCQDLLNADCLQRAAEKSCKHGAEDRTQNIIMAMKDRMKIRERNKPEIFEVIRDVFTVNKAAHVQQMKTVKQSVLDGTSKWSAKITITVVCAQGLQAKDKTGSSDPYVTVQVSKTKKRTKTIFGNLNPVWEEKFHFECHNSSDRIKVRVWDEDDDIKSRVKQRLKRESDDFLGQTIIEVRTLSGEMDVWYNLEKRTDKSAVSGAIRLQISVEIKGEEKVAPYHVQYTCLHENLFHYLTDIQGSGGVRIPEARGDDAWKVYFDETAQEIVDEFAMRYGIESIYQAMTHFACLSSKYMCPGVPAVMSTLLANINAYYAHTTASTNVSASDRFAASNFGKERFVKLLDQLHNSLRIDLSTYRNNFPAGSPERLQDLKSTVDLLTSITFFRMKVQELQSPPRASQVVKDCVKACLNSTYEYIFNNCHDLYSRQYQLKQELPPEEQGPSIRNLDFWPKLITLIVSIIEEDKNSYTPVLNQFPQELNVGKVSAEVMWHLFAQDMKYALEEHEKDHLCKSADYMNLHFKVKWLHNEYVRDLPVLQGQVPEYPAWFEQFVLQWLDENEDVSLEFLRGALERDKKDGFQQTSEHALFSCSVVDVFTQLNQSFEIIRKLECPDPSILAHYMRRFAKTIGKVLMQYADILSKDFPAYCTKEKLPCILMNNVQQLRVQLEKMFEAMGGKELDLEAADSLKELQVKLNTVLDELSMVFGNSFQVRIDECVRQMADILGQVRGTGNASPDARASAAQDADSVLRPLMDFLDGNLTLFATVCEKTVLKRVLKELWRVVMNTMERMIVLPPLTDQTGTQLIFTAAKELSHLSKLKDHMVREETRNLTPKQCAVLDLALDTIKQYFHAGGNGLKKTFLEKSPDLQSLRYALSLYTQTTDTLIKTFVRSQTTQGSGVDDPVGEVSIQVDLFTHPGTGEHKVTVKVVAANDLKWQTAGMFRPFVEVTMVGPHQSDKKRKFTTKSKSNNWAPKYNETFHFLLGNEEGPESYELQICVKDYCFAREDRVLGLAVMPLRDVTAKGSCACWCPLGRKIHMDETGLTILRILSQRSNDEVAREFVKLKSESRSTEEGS
UniProt O14828: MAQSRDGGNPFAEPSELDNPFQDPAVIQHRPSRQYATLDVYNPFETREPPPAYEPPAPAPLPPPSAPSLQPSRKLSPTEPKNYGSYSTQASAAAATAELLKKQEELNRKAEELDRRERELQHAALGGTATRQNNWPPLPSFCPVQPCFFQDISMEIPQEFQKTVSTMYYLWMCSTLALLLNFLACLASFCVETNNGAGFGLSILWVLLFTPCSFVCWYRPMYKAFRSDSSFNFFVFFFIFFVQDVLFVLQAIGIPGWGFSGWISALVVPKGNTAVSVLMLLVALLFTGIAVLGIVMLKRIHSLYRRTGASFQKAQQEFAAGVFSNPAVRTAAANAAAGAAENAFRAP
UniProt O00442: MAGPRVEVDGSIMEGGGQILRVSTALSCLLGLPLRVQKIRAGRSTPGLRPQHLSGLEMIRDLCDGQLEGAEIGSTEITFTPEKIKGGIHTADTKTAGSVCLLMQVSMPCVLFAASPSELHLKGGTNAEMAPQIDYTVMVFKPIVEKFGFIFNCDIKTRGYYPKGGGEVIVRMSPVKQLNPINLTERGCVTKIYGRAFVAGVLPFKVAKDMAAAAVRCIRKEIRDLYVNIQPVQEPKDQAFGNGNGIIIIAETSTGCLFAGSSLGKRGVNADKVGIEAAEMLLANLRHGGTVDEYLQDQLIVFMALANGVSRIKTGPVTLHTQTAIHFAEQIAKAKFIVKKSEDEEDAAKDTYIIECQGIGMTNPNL
UniProt O00411: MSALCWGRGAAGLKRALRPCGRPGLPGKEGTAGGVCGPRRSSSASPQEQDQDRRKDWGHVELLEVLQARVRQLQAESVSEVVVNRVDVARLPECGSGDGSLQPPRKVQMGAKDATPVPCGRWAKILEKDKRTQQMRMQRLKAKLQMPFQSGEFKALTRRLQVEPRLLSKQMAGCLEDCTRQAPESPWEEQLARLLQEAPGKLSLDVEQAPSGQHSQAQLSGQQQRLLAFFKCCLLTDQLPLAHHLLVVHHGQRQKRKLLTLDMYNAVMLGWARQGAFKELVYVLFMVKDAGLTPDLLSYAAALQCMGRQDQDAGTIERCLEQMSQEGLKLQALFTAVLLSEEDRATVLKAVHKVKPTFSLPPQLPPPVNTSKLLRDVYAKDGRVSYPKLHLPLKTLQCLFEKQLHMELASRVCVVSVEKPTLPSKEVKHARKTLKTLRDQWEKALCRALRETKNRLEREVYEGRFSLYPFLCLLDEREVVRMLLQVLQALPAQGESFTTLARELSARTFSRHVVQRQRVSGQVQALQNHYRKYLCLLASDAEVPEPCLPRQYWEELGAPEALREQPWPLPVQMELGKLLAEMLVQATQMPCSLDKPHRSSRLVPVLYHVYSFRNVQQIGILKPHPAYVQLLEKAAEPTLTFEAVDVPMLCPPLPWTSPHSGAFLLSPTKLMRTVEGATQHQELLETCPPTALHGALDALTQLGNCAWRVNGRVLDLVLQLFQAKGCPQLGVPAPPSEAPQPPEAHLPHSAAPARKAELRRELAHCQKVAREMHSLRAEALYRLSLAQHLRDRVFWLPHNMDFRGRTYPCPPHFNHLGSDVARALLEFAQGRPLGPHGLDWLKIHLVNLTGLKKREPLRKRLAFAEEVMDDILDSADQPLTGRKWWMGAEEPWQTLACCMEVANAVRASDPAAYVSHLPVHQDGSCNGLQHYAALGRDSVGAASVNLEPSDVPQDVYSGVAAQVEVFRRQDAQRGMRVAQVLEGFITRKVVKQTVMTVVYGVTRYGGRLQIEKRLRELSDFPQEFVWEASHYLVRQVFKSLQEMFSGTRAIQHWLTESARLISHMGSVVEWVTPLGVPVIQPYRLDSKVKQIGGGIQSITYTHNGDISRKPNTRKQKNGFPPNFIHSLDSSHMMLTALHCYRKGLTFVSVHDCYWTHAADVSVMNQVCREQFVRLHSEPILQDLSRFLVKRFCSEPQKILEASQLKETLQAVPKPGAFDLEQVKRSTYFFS
UniProt O14745: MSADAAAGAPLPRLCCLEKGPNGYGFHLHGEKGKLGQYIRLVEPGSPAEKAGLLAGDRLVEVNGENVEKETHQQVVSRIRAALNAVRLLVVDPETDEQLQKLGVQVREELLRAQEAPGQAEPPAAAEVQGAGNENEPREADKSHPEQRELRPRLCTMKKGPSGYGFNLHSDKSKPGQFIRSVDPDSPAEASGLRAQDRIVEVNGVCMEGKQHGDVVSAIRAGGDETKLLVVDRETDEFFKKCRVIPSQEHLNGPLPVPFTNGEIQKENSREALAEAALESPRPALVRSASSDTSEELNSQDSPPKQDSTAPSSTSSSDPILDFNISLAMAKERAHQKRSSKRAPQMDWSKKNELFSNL
UniProt O15078: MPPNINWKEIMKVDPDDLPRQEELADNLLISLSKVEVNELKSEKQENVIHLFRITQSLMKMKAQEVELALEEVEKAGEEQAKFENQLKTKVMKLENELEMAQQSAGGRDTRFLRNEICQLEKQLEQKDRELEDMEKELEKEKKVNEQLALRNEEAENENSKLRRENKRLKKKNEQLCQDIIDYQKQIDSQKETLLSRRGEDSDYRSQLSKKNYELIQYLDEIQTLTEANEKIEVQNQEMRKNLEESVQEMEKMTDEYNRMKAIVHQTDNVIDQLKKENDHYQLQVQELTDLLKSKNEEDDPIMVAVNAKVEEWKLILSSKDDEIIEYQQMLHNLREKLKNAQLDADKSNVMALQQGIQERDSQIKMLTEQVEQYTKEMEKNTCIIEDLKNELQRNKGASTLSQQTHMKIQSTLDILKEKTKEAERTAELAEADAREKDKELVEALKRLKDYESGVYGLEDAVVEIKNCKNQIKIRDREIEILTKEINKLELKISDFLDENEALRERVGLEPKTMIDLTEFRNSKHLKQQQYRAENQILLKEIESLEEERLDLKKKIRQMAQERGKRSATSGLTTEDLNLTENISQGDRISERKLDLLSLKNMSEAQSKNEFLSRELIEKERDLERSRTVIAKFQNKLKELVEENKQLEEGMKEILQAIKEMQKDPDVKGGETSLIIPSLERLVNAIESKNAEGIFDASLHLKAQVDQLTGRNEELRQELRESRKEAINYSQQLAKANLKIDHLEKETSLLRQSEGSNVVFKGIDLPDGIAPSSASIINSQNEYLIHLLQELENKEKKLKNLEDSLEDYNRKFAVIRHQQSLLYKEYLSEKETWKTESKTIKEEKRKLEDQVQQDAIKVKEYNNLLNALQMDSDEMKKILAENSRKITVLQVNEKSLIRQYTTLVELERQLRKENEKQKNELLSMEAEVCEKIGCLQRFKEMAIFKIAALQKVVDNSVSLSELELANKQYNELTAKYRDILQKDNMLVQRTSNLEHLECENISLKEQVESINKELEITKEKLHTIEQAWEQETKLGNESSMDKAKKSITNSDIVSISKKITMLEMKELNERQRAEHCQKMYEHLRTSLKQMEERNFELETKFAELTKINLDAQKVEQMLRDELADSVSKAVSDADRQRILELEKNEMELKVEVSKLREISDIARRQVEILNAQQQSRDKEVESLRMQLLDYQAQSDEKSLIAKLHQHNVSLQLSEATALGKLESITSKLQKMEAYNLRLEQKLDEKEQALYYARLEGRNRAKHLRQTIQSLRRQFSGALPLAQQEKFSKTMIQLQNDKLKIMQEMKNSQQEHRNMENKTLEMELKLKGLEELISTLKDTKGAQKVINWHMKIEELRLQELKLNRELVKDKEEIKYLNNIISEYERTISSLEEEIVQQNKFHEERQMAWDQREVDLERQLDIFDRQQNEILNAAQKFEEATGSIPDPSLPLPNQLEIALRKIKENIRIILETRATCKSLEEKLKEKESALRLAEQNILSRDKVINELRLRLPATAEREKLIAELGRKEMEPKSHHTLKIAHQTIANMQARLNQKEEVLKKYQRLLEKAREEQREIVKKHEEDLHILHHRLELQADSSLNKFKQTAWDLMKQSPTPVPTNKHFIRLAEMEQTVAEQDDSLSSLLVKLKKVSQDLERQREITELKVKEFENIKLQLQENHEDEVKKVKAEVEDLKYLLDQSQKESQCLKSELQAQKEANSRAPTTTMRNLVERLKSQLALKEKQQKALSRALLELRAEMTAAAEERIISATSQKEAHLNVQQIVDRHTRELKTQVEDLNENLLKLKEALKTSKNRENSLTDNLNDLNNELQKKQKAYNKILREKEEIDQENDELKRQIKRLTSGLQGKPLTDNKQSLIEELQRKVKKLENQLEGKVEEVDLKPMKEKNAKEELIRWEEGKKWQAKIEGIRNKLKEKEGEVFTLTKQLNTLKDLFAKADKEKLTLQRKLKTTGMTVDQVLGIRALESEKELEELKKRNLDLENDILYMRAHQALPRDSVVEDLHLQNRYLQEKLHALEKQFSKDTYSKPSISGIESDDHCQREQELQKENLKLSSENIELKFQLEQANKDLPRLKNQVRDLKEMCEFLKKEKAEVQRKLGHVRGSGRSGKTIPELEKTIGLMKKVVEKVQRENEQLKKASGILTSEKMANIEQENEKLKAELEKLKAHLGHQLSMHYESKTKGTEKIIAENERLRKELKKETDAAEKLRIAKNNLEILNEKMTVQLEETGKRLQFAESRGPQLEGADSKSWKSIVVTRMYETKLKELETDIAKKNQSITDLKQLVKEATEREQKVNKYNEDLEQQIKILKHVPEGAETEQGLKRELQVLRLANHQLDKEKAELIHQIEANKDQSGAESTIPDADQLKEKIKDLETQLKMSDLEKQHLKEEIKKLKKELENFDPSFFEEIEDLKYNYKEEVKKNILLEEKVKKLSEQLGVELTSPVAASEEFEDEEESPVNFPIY
UniProt O00233: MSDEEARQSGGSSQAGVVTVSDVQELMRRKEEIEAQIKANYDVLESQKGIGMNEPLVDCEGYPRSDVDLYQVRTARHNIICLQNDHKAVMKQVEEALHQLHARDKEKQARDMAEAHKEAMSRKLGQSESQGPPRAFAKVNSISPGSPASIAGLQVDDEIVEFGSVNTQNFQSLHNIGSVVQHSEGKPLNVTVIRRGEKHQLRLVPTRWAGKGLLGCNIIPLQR

compound: Cc1nc(Nc2ncc(C(=O)Nc3c(C)cccc3Cl)s2)cc(N2CCN(CCO)CC2)n1 [dasatinib]; test: log2 fold change of tryptic peptide abundance, ligand vs vehicle (limited proteolysis) (log2 ratio); higher = more trypsin-susceptible (destabilized); conditions: ligand concentration: 5 uM; sample: K562 cleared lysate

**Q.** For “UniProt O15111 (peptide sequence: GGPVDLTLK, peptide start residue: 288)”, which log2 fold change is on record?
**A.** Its log2 fold change is 0.351.

**Q.** “UniProt O00506 (peptide sequence: YFGSYLK, peptide start residue: 81)” was tested. Which log2 fold change did it give?
**A.** The log2 fold change was -0.449.

**Q.** For “CASC3 (peptide sequence: WEHDKFR, peptide start residue: 218) (UniProt O15234)”, which log2 fold change is on record?
**A.** Its log2 fold change is 0.46.

**Q.** “CENPX (peptide sequence: VFVVEAAVR, peptide start residue: 44) (UniProt A8MT69)” was tested. Which log2 fold change did it give?
**A.** The log2 fold change was -0.194.

**Q.** “HMGN4 (peptide sequence: VKDEPQRR, peptide start residue: 17) (UniProt O00479)” was tested. Which log2 fold change did it give?
**A.** Its log2 fold change is -0.0944.

**Q.** How did the log2 fold change turn out when “SLC27A2 (peptide sequence: KLFQHIADYLPSYARPR, peptide start residue: 541) (UniProt O14975)” was run?
**A.** Its log2 fold change is -0.408.

**Q.** “ZNF593 (peptide sequence: AAGMGSYVPPR, peptide start residue: 105) (UniProt O00488)” was tested. Which log2 fold change did it give?
**A.** The log2 fold change was 0.455.

**Q.** For “UniProt O14709 (peptide sequence: IHTGEKPYGCNDCSK, peptide start residue: 951)”, which log2 fold change is on record?
**A.** The log2 fold change was 0.402.

**Q.** With “UNC13B (peptide sequence: ERNKPEIFEVIR, peptide start residue: 559) (UniProt O14795)” as the target, how does the log2 fold change read?
**A.** Its log2 fold change is -0.555.

**Q.** “SAP18 (peptide sequence: KKGTHFNFAIVFTDVK, peptide start residue: 82) (UniProt O00422)” was tested. Which log2 fold change did it give?
**A.** The log2 fold change was -0.157.

**Q.** For “TOR1A (peptide sequence: LYCLFAECCGQKR, peptide start residue: 42) (UniProt O14656)”, which log2 fold change is on record?
**A.** The log2 fold change was -0.0704.

**Q.** For “CETN3 (peptide sequence: LFDDDDSGK, peptide start residue: 109) (UniProt O15182)”, which log2 fold change is on record?
**A.** The log2 fold change was 0.241.

**Q.** How did the log2 fold change turn out when “KRIT1 (peptide sequence: SKAPHWTNR, peptide start residue: 592) (UniProt O00522)” was run?
**A.** Its log2 fold change is -0.425.

**Q.** With “UniProt A8MTZ0 (peptide sequence: MHQAAQNTIR, peptide start residue: 69)” as the target, how does the log2 fold change read?
**A.** The log2 fold change was 0.222.

**Q.** How did the log2 fold change turn out when “NA (peptide sequence: ENLASLER, peptide start residue: 29) (UniProt B2RBV5)” was run?
**A.** Its log2 fold change is 0.0514.

**Q.** For “SIVA1 (peptide sequence: AVCGQCER, peptide start residue: 125) (UniProt O15304)”, which log2 fold change is on record?
**A.** The log2 fold change was 0.366.

**Q.** Which log2 fold change does the source give for “ZNF609 (peptide sequence: DTSKPTPGTSLFTPSEGAASKK, peptide start residue: 98) (UniProt O15014)” here?
**A.** The log2 fold change was 0.484.

**Q.** For “ACOT7 (peptide sequence: SLPVPQLVPETEDEKKR, peptide start residue: 341) (UniProt O00154)”, which log2 fold change is on record?
**A.** The log2 fold change was 0.228.

**Q.** For “HDAC3 (peptide sequence: LALTHSLVLHYGLYK, peptide start residue: 29) (UniProt O15379)”, which log2 fold change is on record?
**A.** Its log2 fold change is 0.814.

**Q.** “UniProt A8MT65 (peptide sequence: KQGQTHTEKK, peptide start residue: 310)” was tested. Which log2 fold change did it give?
**A.** Its log2 fold change is 0.531.

**Q.** How did the log2 fold change turn out when “SCAMP3 (peptide sequence: KLSPTEPK, peptide start residue: 74) (UniProt O14828)” was run?
**A.** The log2 fold change was -0.0601.

**Q.** How did the log2 fold change turn out when “SPTBN2 (peptide sequence: FQIQDISVETEDNKEK, peptide start residue: 157) (UniProt O15020)” was run?
**A.** Its log2 fold change is -0.339.

**Q.** How did the log2 fold change turn out when “RNASET2 (peptide sequence: GLRVCEDGPVFYPPPKK, peptide start residue: 237) (UniProt O00584)” was run?
**A.** Its log2 fold change is 0.0618.

**Q.** For “UniProt O14715 (peptide sequence: KYICTYINVQER, peptide start residue: 47)”, which log2 fold change is on record?
**A.** The log2 fold change was -0.222.

**Q.** “UniProt O00442 (peptide sequence: QLNPINLTER, peptide start residue: 177)” was tested. Which log2 fold change did it give?
**A.** The log2 fold change was -0.296.

**Q.** Which log2 fold change does the source give for “POLRMT (peptide sequence: LHSEPILQDLSR, peptide start residue: 1174) (UniProt O00411)” here?
**A.** The log2 fold change was -0.519.

**Q.** “KPNA4 (peptide sequence: KLLSSDRNPPIDDLIK, peptide start residue: 97) (UniProt O00629)” was tested. Which log2 fold change did it give?
**A.** Its log2 fold change is -0.118.

**Q.** “PDCD5 (peptide sequence: LSNLALVKPEKTK, peptide start residue: 56) (UniProt O14737)” was tested. Which log2 fold change did it give?
**A.** Its log2 fold change is 0.177.

**Q.** For “SLC9A3R1 (peptide sequence: LCCLEKGPNGYGFHLHGEK, peptide start residue: 14) (UniProt O14745)”, which log2 fold change is on record?
**A.** The log2 fold change was 0.377.

**Q.** Which log2 fold change does the source give for “NACA (peptide sequence: IEDLSQQAQLAAAEKFK, peptide start residue: 1991) (UniProt E9PAV3)” here?
**A.** The log2 fold change was -0.0661.

**Q.** For “SCD (peptide sequence: FSETHADPHNSR, peptide start residue: 163) (UniProt O00767)”, which log2 fold change is on record?
**A.** The log2 fold change was -0.0385.

**Q.** With “LAMA5 (peptide sequence: AVAAEAQDTATR, peptide start residue: 2634) (UniProt O15230)” as the target, how does the log2 fold change read?
**A.** The log2 fold change was -0.312.

**Q.** For “UniProt O14604 (peptide sequence: KTETQEK, peptide start residue: 20)”, which log2 fold change is on record?
**A.** Its log2 fold change is 0.0503.

**Q.** For “CEP290 (peptide sequence: NTCIIEDLKNELQR, peptide start residue: 381) (UniProt O15078)”, which log2 fold change is on record?
**A.** Its log2 fold change is 0.884.

**Q.** Which log2 fold change does the source give for “UniProt L0R819 (peptide sequence: NILDELKK, peptide start residue: 74)” here?
**A.** The log2 fold change was -0.0837.

**Q.** With “UniProt O14948 (peptide sequence: IKELGTLIPK, peptide start residue: 331)” as the target, how does the log2 fold change read?
**A.** Its log2 fold change is 0.247.

**Q.** For “PSMD9 (peptide sequence: LGQSESQGPPR, peptide start residue: 124) (UniProt O00233)”, which log2 fold change is on record?
**A.** The log2 fold change was 0.299.
